Laboratory results taken from PMC9336500.
These are yes or no findings as the source states them, for the method shown. In cells and extracts the contact can be indirect. Some entries that bind do so weakly or less than the wild type.

Amino acid sequences for entries named in this document (tags omitted). Residues count along the entry.
UniProt P35869, residues 11-848: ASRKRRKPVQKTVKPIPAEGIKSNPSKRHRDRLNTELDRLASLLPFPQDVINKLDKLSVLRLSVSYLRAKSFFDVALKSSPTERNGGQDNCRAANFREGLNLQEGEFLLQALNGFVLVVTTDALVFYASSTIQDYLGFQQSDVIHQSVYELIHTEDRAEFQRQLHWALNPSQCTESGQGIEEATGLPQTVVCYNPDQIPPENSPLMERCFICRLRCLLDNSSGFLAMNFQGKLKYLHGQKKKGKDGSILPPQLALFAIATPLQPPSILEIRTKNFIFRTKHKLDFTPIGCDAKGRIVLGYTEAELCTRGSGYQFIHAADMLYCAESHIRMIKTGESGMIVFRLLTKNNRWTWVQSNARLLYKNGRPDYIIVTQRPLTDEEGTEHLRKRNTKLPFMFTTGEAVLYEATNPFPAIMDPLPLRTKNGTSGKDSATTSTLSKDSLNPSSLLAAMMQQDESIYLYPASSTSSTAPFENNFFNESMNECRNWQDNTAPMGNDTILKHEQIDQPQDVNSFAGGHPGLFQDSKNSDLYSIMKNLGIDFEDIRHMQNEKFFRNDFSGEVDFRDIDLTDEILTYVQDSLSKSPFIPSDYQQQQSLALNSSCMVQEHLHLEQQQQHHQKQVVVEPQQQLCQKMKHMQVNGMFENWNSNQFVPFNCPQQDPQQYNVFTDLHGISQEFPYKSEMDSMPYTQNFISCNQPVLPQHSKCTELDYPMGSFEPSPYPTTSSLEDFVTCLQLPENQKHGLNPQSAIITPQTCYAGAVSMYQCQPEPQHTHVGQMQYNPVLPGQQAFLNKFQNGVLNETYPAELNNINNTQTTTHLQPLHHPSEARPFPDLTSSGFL
UniProt P27540: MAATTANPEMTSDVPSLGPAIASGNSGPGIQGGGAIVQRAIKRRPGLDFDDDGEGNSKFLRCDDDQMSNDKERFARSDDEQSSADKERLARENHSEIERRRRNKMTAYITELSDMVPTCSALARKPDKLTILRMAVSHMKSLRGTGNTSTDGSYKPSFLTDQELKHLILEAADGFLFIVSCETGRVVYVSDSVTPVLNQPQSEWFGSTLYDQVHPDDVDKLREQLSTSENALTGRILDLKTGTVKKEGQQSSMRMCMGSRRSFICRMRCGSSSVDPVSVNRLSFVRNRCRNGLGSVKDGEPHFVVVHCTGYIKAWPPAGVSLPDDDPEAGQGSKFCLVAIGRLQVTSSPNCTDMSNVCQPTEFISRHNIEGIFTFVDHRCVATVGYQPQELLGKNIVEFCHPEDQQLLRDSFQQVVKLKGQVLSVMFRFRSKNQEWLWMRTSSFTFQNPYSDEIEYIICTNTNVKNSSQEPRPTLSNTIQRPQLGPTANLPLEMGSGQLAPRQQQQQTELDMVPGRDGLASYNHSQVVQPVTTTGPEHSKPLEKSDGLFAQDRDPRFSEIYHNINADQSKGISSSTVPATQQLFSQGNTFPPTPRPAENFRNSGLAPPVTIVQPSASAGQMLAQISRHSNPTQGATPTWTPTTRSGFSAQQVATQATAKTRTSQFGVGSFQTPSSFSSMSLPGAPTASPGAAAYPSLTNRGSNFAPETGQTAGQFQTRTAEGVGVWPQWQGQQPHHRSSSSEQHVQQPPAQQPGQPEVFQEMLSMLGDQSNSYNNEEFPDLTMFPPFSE

Assays:
[1] = target: Aryl hydrocarbon receptor (human (endogenous in LS180)) (UniProt P35869); experiment: co-IP; LS180 cells treated for 90 min with TCDD (10 nM), FICZ (10 nM) or butyrate (10 mM) with FICZ (10 nM); lysate; Pierce Co-Immunoprecipitation Kit with covalently bound AhR antibody; eluate blotted with ARNT 1 antibody
[2] = target: Aryl hydrocarbon receptor (human (endogenous in LS180)) (UniProt P35869); experiment: condition: only cells treated with butyrate (10 mM) alone, without an AhR agonist; co-IP; LS180 cells treated for 90 min with butyrate (10 mM) alone; lysate; Pierce Co-Immunoprecipitation Kit with covalently bound AhR antibody; eluate blotted with ARNT 1 antibody

binding [1]: binds
binding [2]: no binding
Substance: AhR nuclear translocator (from UniProt P27540 1-789)
